In article PMC4671574:
Results are given in words; binding and its absence hold for the method and conditions named. Binding seen in cells or lysates may run through a third protein. These calls come from enrichment with a bait or labelling near it, and not all partners need be listed.

Amino acid sequences for entries named in this document (tags omitted). A change or cut given only in a name is not applied to a line headed by its entry.
UniProt Q03532: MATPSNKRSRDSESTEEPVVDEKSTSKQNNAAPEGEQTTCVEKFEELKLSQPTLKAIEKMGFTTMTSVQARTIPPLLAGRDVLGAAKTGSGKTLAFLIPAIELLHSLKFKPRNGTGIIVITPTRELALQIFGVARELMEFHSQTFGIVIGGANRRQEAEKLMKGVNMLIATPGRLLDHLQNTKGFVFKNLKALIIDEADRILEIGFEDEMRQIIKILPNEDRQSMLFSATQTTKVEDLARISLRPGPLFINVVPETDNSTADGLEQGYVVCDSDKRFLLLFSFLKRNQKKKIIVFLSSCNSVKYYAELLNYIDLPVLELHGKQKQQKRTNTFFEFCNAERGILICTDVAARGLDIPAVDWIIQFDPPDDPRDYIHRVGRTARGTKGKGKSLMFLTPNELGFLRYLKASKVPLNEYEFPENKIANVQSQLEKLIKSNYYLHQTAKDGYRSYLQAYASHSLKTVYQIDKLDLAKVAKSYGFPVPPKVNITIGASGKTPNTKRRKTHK
UniProt P40007: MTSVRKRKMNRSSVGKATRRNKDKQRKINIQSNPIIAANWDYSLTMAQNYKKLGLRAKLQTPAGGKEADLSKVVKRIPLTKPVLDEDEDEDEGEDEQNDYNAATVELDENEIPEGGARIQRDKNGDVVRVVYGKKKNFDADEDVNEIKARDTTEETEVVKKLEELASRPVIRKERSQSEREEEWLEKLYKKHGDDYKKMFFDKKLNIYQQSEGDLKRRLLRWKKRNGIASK
UniProt P14126: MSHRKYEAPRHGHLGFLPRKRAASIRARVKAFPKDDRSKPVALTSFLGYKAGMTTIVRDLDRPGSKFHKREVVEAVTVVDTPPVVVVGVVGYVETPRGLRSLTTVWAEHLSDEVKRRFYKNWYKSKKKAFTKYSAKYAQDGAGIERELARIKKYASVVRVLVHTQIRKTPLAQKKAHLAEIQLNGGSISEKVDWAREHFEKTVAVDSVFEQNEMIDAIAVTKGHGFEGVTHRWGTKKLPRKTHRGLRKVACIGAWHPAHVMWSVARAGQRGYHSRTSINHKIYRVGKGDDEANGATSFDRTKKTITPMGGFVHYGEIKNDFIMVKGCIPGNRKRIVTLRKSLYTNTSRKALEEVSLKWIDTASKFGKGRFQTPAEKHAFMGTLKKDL
UniProt P05737: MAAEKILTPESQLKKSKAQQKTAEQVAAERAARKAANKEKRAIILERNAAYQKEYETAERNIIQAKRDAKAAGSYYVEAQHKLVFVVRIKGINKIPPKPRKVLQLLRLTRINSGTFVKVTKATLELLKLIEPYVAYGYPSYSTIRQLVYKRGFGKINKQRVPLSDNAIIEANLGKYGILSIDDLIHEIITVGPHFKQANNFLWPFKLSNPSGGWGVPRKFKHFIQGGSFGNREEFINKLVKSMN
UniProt P17076: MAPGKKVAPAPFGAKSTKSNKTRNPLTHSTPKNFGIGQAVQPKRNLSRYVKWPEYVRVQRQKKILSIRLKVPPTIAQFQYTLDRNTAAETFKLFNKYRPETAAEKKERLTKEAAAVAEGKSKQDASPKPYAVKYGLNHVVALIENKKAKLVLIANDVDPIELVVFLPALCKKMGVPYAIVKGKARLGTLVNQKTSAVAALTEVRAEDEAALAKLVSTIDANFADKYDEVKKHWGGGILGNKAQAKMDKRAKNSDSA
UniProt Q12690: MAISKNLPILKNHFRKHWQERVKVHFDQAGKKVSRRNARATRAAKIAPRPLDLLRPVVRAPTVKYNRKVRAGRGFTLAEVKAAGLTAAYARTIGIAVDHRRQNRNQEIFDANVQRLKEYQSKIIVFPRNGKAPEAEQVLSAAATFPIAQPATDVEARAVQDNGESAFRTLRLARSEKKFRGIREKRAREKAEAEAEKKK
UniProt P36105: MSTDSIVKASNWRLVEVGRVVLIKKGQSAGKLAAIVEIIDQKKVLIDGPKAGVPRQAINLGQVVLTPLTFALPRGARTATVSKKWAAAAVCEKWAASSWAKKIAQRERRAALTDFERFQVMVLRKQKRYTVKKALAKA
UniProt P05748: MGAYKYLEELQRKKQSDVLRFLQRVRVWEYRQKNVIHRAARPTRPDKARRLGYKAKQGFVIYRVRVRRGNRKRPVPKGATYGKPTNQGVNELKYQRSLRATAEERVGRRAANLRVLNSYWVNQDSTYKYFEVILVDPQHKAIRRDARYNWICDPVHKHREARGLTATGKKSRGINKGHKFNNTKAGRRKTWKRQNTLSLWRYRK
UniProt P05740: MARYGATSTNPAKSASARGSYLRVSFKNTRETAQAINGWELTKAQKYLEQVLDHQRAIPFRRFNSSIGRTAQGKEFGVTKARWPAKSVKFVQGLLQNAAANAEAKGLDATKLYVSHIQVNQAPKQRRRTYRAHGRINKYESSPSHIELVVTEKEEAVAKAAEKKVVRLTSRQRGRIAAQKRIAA
UniProt P0CX82: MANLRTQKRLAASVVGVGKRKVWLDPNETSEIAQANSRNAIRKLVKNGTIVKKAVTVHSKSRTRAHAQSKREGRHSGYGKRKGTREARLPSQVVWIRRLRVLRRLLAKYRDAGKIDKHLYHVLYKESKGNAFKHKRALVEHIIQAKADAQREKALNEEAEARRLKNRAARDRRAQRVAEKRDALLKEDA
UniProt P38061: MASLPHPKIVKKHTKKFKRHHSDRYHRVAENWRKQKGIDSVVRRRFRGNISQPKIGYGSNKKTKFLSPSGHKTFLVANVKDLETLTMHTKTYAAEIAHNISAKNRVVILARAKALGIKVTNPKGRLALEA
UniProt P05744: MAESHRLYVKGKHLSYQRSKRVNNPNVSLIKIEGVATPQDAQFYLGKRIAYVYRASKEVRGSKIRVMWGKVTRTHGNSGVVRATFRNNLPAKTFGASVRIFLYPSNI
UniProt P05745: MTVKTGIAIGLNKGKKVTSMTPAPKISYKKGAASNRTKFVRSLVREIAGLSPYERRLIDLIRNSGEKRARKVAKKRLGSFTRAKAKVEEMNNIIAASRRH
UniProt P04650: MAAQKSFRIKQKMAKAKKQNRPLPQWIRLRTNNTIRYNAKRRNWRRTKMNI

Molecular target: T1, Noc2-TAP (S. cerevisiae) (UniProt P39744)
T1 sequence: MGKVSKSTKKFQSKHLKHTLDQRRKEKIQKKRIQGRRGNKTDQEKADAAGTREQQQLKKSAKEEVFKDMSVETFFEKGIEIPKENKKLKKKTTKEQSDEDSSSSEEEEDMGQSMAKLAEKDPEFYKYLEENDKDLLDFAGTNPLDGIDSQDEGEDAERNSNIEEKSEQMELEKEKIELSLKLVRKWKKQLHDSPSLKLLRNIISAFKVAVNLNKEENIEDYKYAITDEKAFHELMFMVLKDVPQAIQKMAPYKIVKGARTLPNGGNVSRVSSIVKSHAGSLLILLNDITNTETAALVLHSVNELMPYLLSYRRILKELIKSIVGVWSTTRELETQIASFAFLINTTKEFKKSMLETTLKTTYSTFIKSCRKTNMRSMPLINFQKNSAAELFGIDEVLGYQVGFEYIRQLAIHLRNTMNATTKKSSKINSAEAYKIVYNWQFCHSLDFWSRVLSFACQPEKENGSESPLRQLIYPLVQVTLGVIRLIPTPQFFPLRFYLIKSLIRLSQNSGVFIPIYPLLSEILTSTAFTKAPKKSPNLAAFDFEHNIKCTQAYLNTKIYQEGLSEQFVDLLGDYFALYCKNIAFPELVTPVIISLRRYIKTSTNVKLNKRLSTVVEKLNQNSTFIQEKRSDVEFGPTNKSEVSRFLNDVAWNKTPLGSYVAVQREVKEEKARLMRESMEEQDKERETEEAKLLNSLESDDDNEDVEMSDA
Assay: affinity purification with mass spectrometry; Noc2-TAP and associated pre-ribosomal particles purified on magnetic beads coated with rabbit IgG from total cellular extracts of yeast (wild type and GAL1/10 r-protein expression mutants after 4 h in glucose medium); eluted proteins digested with trypsin, peptides labelled with iTRAQ and identified by mass spectrometry; levels normalised to Noc2-TAP

binding	Molecule
binds	Has1 (from UniProt Q03532 1-505)
binds	Nop16 (from UniProt P40007 1-231)
binds	rpL3/uL3 (from UniProt P14126 1-387)
binds	rpL6/eL6 (S. cerevisiae (endogenous in yeast))
binds	rpL7/uL30 (from UniProt P05737)
binds	rpL8/eL8 (from UniProt P17076)
binds	rpL13/eL13 (from UniProt Q12690)
binds	rpL14/eL14 (from UniProt P36105)
binds	rpL15/eL15 (from UniProt P05748)
binds	rpL16/uL13 (S. cerevisiae (endogenous in yeast))
binds	rpL17/uL22 (from UniProt P05740)
binds	rpL19/eL19 (from UniProt P0CX82 1-189)
binds	rpL32/eL32 (from UniProt P38061 1-130)
binds	rpL33/eL33 (from UniProt P05744)
binds	rpL36/eL36 (from UniProt P05745)
binds	rpL39/eL39 (from UniProt P04650 1-51)
binds	rpL18/eL18 (protein, UniProt P0CX49 1-186) MGIDHTSKQHKRSGHRTAPKSDNVYLKLLVKLYTFLARRTDAPFNKVVLKALFLSKINRPPVSVSRIARALKQEGAANKTVVVVGTVTDDARIFEFPKTTVAALRFTAGARAKIVKAGGECITLDQLAVRAPKGQNTLILRGPRNSREAVRHFGMGPHKGKAPRILSTGRKFERARGRRRSKGFKV
binds	rpL20/eL20 (protein, UniProt P0CX23 1-172) MAHFKEYQVIGRRLPTESVPEPKLFRMRIFASNEVIAKSRYWYFLQKLHKVKKASGEIVSINQINEAHPTKVKNFGVWVRYDSRSGTHNMYKEIRDVSRVAAVETLYQDMAARHRARFRSIHILKVAEIEKTADVKRQYVKQFLTKDLKFPLPHRVQKSTKTFSYKRPSTFY
binds	Mak5 (protein, UniProt P38112 1-773) MGKKRAPQKGKTVTKPQEIIVDESKLNWKPVDIPDTLDDFGGFYGLEEIDGVDVKVVDGKVTFVTKKDSKVLKDSNKEKVGDDQESVENESGSDSESELLEFKNLDDIKEGELSAASYSSSDEDEQGNIESSKLTDPSEDVDEDVDEDVLKENVFNKDINIDDISPVNLPEWTNLAPLSMTILQSLQNLNFLRPTEIQKKSIPVIMQGVDVMGKASTGSGKTLAYGIPIVEKLISNFSQKNKKPISLIFTPTRELAHQVTDHLKKICEPVLAKSQYSILSLTGGLSIQKQQRLLKYDNSGQIVIATPGRFLELLEKDNTLIKRFSKVNTLILDEADRLLQDGHFDEFEKIIKHLLVERRKNRENSEGSSKIWQTLIFSATFSIDLFDKLSSSRQVKDRRFKNNEDELNAVIQHLMSKIHFNSKPVIIDTNPESKVSSQIKESLIECPPLERDLYCYYFLTMFPGTTLIFCNAIDSVKKLTVYLNNLGIPAFQIHSSMTQKNRLKSLERFKQQSAKQKTINHSNPDSVQLSTVLIASDVAARGLDIPGVQHVIHYHLPRSTDIYIHRSGRTARAGSEGVSAMICSPQESMGPLRKLRKTLATKNSVSTDLNSRSTNRKPIKWQNTVPLLPIETDILSQLRERSRLAGELADHEIASNSLRKDDNWLKKAADELGIDVDSDEDDISKSNSDTFLLKNKNKKMQKTINKDKVKAMRATLNELLSVPIRKDRRQKYLTGGLVNLADNLVKKRGHNSIIGHEKTNALETLKKKKKRNN
binds	Rpf1 (protein, UniProt P38805 1-295) MALGNEINITNKLKRQEIFADIKHEKNKERHTMRRKRAKEERENPELREQRLKENVTQTIENTRVYDETINKEVEGDEDDLMRYFNSNSNEPPKIFLTTNVNAKKSAYEFANILIEILPNVTFVKRKFGYKLKEISDICIKRNFTDIVIINEDKKKVTGLTFIHLPEGPTFYFKLSSFVEVKKIVGHGRPTSHIPELILNNFQTRLGQTVGRLFQSILPQNPDIEGRQVITLHNQRDYIFFRRHRYVFKDNERVGLQELGPQFTLKLKRLQRGIKEETEWEHKPEMDKEKKKFYL
binds	Nug1 (protein, UniProt P40010 1-520) MRVRKRQSRRTSTKLKEGIKKKASAHRKKEKKMAKKDVTWRSRSKKDPGIPSNFPYKAKILEEIEAKKMKDLEERELAKQQRLEARKAAKEQGVDAMDEDMIEDDENGLAALVESAQQAAAEYEGTPSNDADVRDDELDVIDYNIDFYGEDVEGESELEKSRKAYDKIFKSVIDASDVILYVLDARDPESTRSRKVEEAVLQSQGKRLILILNKVDLIPPHVLEQWLNYLKSSFPTIPLRASSGAVNGTSFNRKLSQTTTASALLESLKTYSNNSNLKRSIVVGVIGYPNVGKSSVINALLARRGGQSKACPVGNEAGVTTSLREIKIDNKLKILDSPGICFPSENKKRSKVEHEAELALLNALPAKHIVDPYPAVLMLVKRLAKSDEMTESFKKLYEIPPIPANDADTFTKHFLIHVARKRGRLGKGGIPNLASAGLSVLNDWRDGKILGWVLPNTSAAASQQDKQNLSTINTGTKQAPIAANESTIVSEWSKEFDLDGLFSSLDKAIDASKDQDTMME
binds	Pwp1 (protein, UniProt P21304 1-576) MISATNWVPRGFSSEFPEKYVLDDEEVERINQLAQLNLDDAKATLEEAEGESGVEDDAATGSSNKLKDQLDIDDDLKEYNLEEYDDEEIADNEGGKDVSMFPGLSNDSDVKFHEGEKGEDPYISLPNQEDSQEEKQELQVYPSDNLVLAARTEDDVSYLDIYVYDDGAGFHSSDIPVEEGDEADPDVARGLVRDPALYVHHDLMLPAFPLCVEWLDYKVGSNSEEAANYAAIGTFDPQIEIWNLDCVDKAFPDMILGEPLDNSMVSLKSKKKKKKSKTGHITTHHTDAVLSMAHNKYFRSVLASTSADHTVKLWDLNSGNAARSLASIHSNKNVSSSEWHMLNGSILLTGGYDSRVALTDVRISDESQMSKYWSAMAGEEIETVTFASENIILCGTDSGNVYSFDIRNNENRKPVWTLKAHDAGISTLCSNKFIPGMMSTGAMGEKTVKLWKFPLDDATNTKGPSMVLSRDFDVGNVLTSSFAPDIEVAGTMVIGGVNKVLKLWDVFTNRSVRKSFKSELENVQARAKEEAQKIGKSSRIARKYTSNDNPDTVITIDDQGEDEEEREGGDEHDDMA
binds	Rrp17 (protein, UniProt Q04031 1-235) MAVHTNRQILTRGKNYATKQSKKFGTDEVTFDKDSRLDYLTGFHKRKLQRQKKAQEFIKEQERLRKIEERQKIRQERKEVMEEQLKTFKESLNLEAEIEDAKNDKTEDLQVESDESWHGFDSDKDDGDNDNNESSVKPILKKGAITEIYDDSTTVELETLEPNDNFEYLAQLNNVKLEKAEKVLKQSINRATKYAKFLGVDEKQKKKPRVKKFRYLTKNERRINQRKANDNKRRR
binds	Rlp7 (protein, UniProt P40693 1-322) MSSTQDSKAQTLNSNPEILLRKRRNADRTRIERQELAKKKREEQIKKKRSNKNKFVRAESIVAKTLATSREKERIKRVSILEDKKAKNETQHIASGKDFILKITEKANGAEENSVDLEETEEEEDDGLIREKTTYDGKPALLFIVRVRGPLAVNIPNKAFKILSLLRLVETNTGVFVKLTKNVYPLLKVIAPYVVIGKPSLSSIRSLIQKRGRIIYKGENEAEPHEIVLNDNNIVEEQLGDHGIICVEDIIHEIATMGESFSVCNFFLQPFKLNREVSGFGSLNRLRKIKQREAESRTRQFSNAATAPVIEVDIDSLLAKLN
binds	Nop7 (protein, UniProt P53261 1-605) MRIKKKNTRGNARNFITRSQAVRKLQVSLADFRRLCIFKGIYPREPRNKKKANKGSTAPTTFYYAKDIQYLMHEPVLAKFREHKTFARKLTRALGRGEVSSAKRLEENRDSYTLDHIIKERYPSFPDAIRDIDDALNMLFLFSNLPSTNQVSSKIINDAQKICNQWLAYVAKERLVRKVFVSIKGVYYQANIKGEEVRWLVPFKFPENIPSDVDFRIMLTFLEFYSTLLHFVLYKLYTDSGLIYPPKLDLKKDKIISGLSSYILESRQEDSLLKLDPTEIEEDVKVESLDASTLKSALNADEANTDETEKEEEQEKKQEKEQEKEQNEETELDTFEDNNKNKGDILIQPSKYDSPVASLFSAFVFYVSREVPIDILEFLILSCGGNVISEAAMDQIENKKDIDMSKVTHQIVDRPVLKNKVAGRTYIQPQWIFDCINKGELVPANKYLPGEALPPHLSPWGDAIGYDPTAPVEEGEEEESESESESEDQVEEEDQEVVAGEEDDDDDEELQAQKELELEAQGIKYSETSEADKDVNKSKNKKRKVDEEEEEKKLKMIMMSNKQKKLYKKMKYSNAKKEEQAENLKKKKKQIAKQKAKLNKLDSKK
binds	Cic1 (protein, UniProt P38779 1-376) MAKKSNSKKSTPVSTPSKEKKKVIEKKSSTAIPRERVIKAVNELIKFTSKPQDENNEEGNNGKKNLLEDDEEELKKDLQLIVVNNKSFTGTSKSFKLKLLNVKHSFYKPWKEASATAVKDFKVLLILKDSDIKKVSEDDLFDQLDSEGIKVDEIICGKDLKTVYKAYEARNAFISQFSLILADDSIVTSLPKLMGGKAYNKVETTPISIRTHANKEFSLTTLTNNIKKVYMNQLPVKLPRGTTLNVHLGNLEWLRPEEFVDNVELISEQLIKAYQIRSIFIKTNRSPVLPLYYNQDVLDELEAKKDKIEETHEDDMVTIDGVQVHLSTFNKGLMEIANPSELGSIFSKQINNAKKRSSSELEKESSESEAVKKAKS
